Out of some 340,000 compounds screened, about 6,200 (1.8%) were called active. Inconclusive results, whose numbers are uncertain, are shown with a selection of clear calls. Calls come from the whole dose curve; as a rule, active = well fitted activation curve with a large enough effect; inconclusive = small, poorly fitted or top-dose-only effect; inactive = no such curve, though single readings can be large or run the other way. Where the call is inconclusive, the potency comes from a doubtful curve fit.
Experiment: A quantitative high throughput screen for small molecules that induce DNA re-replication in SW480 colon adenocarcinoma cells. Note: nearly all actives have a fitted effect of over 55% in size.
Settings: Hoechst DNA content imaging, 48 h; series mostly up to 46.1 µM
How it was run: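 Readout is total intensity of Hoechst-stained nuclei, excited at 405 nm and collected at 500-530 nm. Compound treatment lasted 48 hr at 37 C in 5% CO2 before staining.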
Potency is the fitted concentration of half-maximal effect.

Row | SMILES | Potency
1 | CCOC(=O)C1CCN(C(c2cccnc2)c2c(NC(=O)c3ccco3)sc(C)c2C)CC1 (stereo not drawn) | inconclusive: 16.4 µM [activator, partial curve, poor fit]
2 | COc1ccc(S(=O)(=O)N2N=C(c3ccc(NS(C)(=O)=O)cc3)CC2c2ccco2)cc1 (stereo not drawn) | inconclusive: 3.26 µM [activator, full curve, poor fit]
3 | C/C(=N/NC(=O)CNC(=O)Cc1ccc(Cl)cc1)c1ccco1 | inconclusive: 29.1 µM [activator, single point]
4 | COc1cc(NC(=O)CN(c2ccc(C)cc2)S(=O)(=O)c2c(C)noc2C)cc(OC)c1 | inconclusive: 18.4 µM [activator, partial curve, poor fit]
5 | O=C(Nc1ccc(N2CCCCC2)cc1)c1ccc([N+](=O)[O-])o1 | inconclusive: 5.8 µM [activator, full curve]
6 | Cc1cccc(Nc2c([N+](=O)[O-])c(=O)oc3ccccc23)c1 | inconclusive: 14.6 µM [activator, partial curve, poor fit]
7 | CCOc1ccc(OCC)c(NC(=O)CCn2c(=O)oc3ccccc32)c1 | inactive
8 | Cc1cccc(N(CC(=O)NCc2ccc(F)cc2)C(=O)c2ccco2)c1 | inconclusive: 35.5 µM [activator, single point]
9 | COc1cc(C(CCN2CCCC2)c2c(OC)cc(OC)c3c(-c4ccccc4)cc(=O)oc23)cc(OC)c1OC (stereo not drawn) | inconclusive: 23.1 µM [activator, partial curve, poor fit]
10 | CN(Cc1ccc(F)cc1)C(=O)c1cccc(S(=O)(=O)N2CCN(Cc3ccccc3)CC2)c1 | inconclusive: 29.1 µM [activator, single point]
11 | CCN(C(=O)COC(=O)/C(=C/c1ccccc1)n1nnnc1C)C1CCCCC1 | inconclusive: 29.1 µM [activator, single point]
12 | Oc1ccccc1/C=N/Nc1cccc2cccnc12 | inconclusive: 20.6 µM [activator, single point]
13 | O=C(Cc1ccc(-c2ccccc2)cc1)Nc1ccccn1 | inactive
14 | COc1ccc(-c2cc(-c3cccs3)c(C#N)c(SCC(=O)NCc3ccco3)n2)cc1 | active: 2.59 µM
15 | Cc1ccc(C(=O)Nc2ccc(N3CCN(S(C)(=O)=O)CC3)cc2)cc1C | active: 16.4 µM
16 | Cc1cc(C)n(-c2nc(-c3cccc(Cl)c3)cs2)n1 | inconclusive: 29.1 µM [activator, single point]
17 | O=[N+]([O-])c1ccc(O)c(CSc2nnnn2-c2ccccc2)c1 | inactive
18 | Cc1nn(-c2ccccc2)c(C)c1/C=N/NC(=O)c1cc(-c2ccc(Br)s2)[nH]n1 | active: 14.6 µM
19 | Cc1ccc(S(=O)(=O)N2CCN(c3ccnc4cc(Cl)ccc34)CC2)cc1C | inactive
20 | CCOC(=O)CSc1snnc1C | inactive
21 | CCN(c1cccc(C(F)(F)F)c1)S(=O)(=O)c1ccc2c(c1)CCN2C(C)=O | inconclusive: 16.4 µM [activator, single point]
22 | Clc1cc(Sc2ccc(Br)cc2)nnc1-c1ccccc1 | inactive

Some of the entries above, reformatted:
Row	SMILES	Potency
7	CCOc1ccc(OCC)c(NC(=O)CCn2c(=O)oc3ccccc32)c1	inactive
8	Cc1cccc(N(CC(=O)NCc2ccc(F)cc2)C(=O)c2ccco2)c1	inconclusive: 35.5 µM [activator, single point]
9	COc1cc(C(CCN2CCCC2)c2c(OC)cc(OC)c3c(-c4ccccc4)cc(=O)oc23)cc(OC)c1OC (stereo not drawn)	inconclusive: 23.1 µM [activator, partial curve, poor fit]
10	CN(Cc1ccc(F)cc1)C(=O)c1cccc(S(=O)(=O)N2CCN(Cc3ccccc3)CC2)c1	inconclusive: 29.1 µM [activator, single point]
11	CCN(C(=O)COC(=O)/C(=C/c1ccccc1)n1nnnc1C)C1CCCCC1	inconclusive: 29.1 µM [activator, single point]
12	Oc1ccccc1/C=N/Nc1cccc2cccnc12	inconclusive: 20.6 µM [activator, single point]
13	O=C(Cc1ccc(-c2ccccc2)cc1)Nc1ccccn1	inactive
14	COc1ccc(-c2cc(-c3cccs3)c(C#N)c(SCC(=O)NCc3ccco3)n2)cc1	active: 2.59 µM
15	Cc1ccc(C(=O)Nc2ccc(N3CCN(S(C)(=O)=O)CC3)cc2)cc1C	active: 16.4 µM

(more compounds)

Row | SMILES | Potency
23 | O=C(CSc1nc(-c2ccco2)cc(C(F)(F)F)n1)Nc1ccc2c(c1)CCC2 | inconclusive: 23.1 µM [activator, single point]
24 | Cc1ccc2nc(-c3ccc(NC(=O)COCC(=O)O)cc3)sc2c1 | inconclusive: 29.1 µM [activator, single point]
25 | CC(C)=CC(=O)NCCc1ccccc1 | inconclusive: 6.51 µM [activator, partial curve, poor fit]
26 | CCOCCn1c(CN2CCN(c3ccc(F)cc3)CC2)nc2c1c(=O)n(C)c(=O)n2C | inactive
27 | Cc1cc(NC(=O)c2ccc(Cl)c(S(=O)(=O)N3CCCCC3)c2)no1 | inconclusive: 20.6 µM [activator, single point]
28 | CCOC(=S)SCC(=O)Nc1nc(-c2ccc(Br)cc2)cs1 | inconclusive: 3.26 µM [activator, full curve, poor fit]
29 | COc1ccc(C(=O)NC(C(=O)NCC2CCCO2)C(C)C)cc1 (stereo not drawn) | inactive
30 | CS(=O)(=O)N1CCN(CC2CC3C=CC2C3)CC1 (stereo not drawn) | inactive
31 | CC1(C)COC(Cn2c3ccccc3c3ccccc32)O1 (stereo not drawn) | inconclusive: 18.4 µM [activator, single point]
32 | COc1ccc(S(=O)(=O)N(CC(C)C)C2CCS(=O)(=O)C2)cc1OC (stereo not drawn) | inactive
33 | CCOC(=O)c1c(NC(C)=O)sc2c(OCC(O)CN(CC)CC)c(Br)ccc12 (stereo not drawn) | inconclusive: 25.9 µM [activator, single point]
34 | Cc1ccc(C)c2sc(N3CCN(C(=O)c4ccc([N+](=O)[O-])o4)CC3)nc12 | inconclusive: 29.1 µM [activator, single point]
35 | Nc1ccccc1SCC(=O)Nc1ccc2c(c1)OCCO2 | inconclusive: 2.59 µM [activator, full curve, poor fit]
36 | NNC(=O)c1[nH]c2ccc(Br)cc2c1-c1ccccc1 | inconclusive: 20.6 µM [activator, single point]
37 | Cc1ccc(CCC(=O)Nc2ccc([N+](=O)[O-])cc2Cl)o1 | inconclusive: 0.0065 µM [activator, full curve, poor fit]
38 | COc1ccc(-c2[nH]ncc2/C=C(/C#N)C(=O)NC2CCCCCC2)cc1 | active: 12.6 µM
39 | CCCn1c(N)c(C(=O)CSc2nnc3ccccn23)c(=O)[nH]c1=O | inconclusive: 29.1 µM [activator, partial curve, poor fit]
40 | Cc1ccc(OCC(=O)N(C)CC(=O)Nc2ccc(F)c(F)c2F)cc1 | inconclusive: 6.51 µM [activator, single point]
41 | O=c1cc(-c2ccccc2)[nH]c2ccccc12 | inconclusive: 2.31 µM [activator, full curve, poor fit]
42 | CN(C)CCCN1c2ccccc2Sc2ccc3ccccc3c21 | inconclusive: 20.6 µM [activator, single point]
43 | O=C1N(Cc2cccnc2)C[C@@H]2C[C@@H](c3cccc(OC4CCCC4)c3)N3CCC[C@@]123 | inconclusive: 29.1 µM [activator, single point]
